# Test results from the supplement of paper PMC9925115.
# This is a selection; strong and weak results do not stand in their true shares.
# Test system: FLX1 + dox-induced PRKAR1A G325D
# Assay: difference in log2 fold change of viability vs plate median (dox-induced PRKAR1A G325D minus uninduced); higher = compound less effective when PKA is inhibited
# Conditions: concentration: not stated (2 or 5 uM); 5 days
# Procedure: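 For each plate a log2 fold change vs the plate median was derived, and the values without dox were subtracted from those with dox, averaged over three biological replicates.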
row,Compound,difference in log2 fold change of viability
1,Cc1ccccc1-n1c(Cn2nc(-c3cccc(O)c3)c3c(N)ncnc32)nc2cccc(C)c2c1=O,0.223
2,Cc1nc2c(-c3cnc(N)nc3)nc(N3CCOCC3)nc2n1C(C)C,0.679
